Laboratory results: US9694090B2, “Process for preparing hyperpolarized substrates and method for MRI” (priority 2010, dated 2017)

Key:
[1] = DNP solid-state polarization signal and build-up (1.2 K, 3.35 T); conditions: for Solid state signal: DNP at 1.2 K, 3.35 T; for Polarization of ester relative to the corresponding acid: solid state, compared with example a of the same number
[2] = Liquid state polarization after DNP and dissolution; conditions: after 60 min DNP and dissolution in phosphate buffer

Compound	Solid state signal [1]	Polarization of ester relative to the corresponding acid [1]	Liquid state polarization [2] [%]
O=C1CCC([13C](=O)O)N1 (stereo not shown) [1-13C Pyroglutamic acid, reference compound]	75 area in arbitrary units divided by mmol 13C	–	–
C=C(CC(=O)OCC)[13C](=O)OCC [1-13C Itaconate diethyl ester]	340 area in arbitrary units divided by mmol 13C	2.3 times	–
CCO[13C](=O)C1CSC(=O)N1 (stereo not shown) [1-13C OTZ ethyl ester]	380 area in arbitrary units divided by mmol 13C	1.2 times	–
[2H][13C]([2H])(NC(C)=O)C(=O)O [2-13C-d2-N-acetyl glycine]	376 area in arbitrary units divided by mmol 13C	–	21
CCOC(=O)C1CCC(=O)N1 (stereo not shown) [1-13C pyroglutamic ethyl ester]	350 area in arbitrary units divided by mmol 13C	more than 4.5 times	–
[2H][13C]([2H])(N)C(=O)O [2-13C-d2-Glycine, reference compound]	280 area in arbitrary units divided by mmol 13C	–	12.5
O=C1N[C@H]([13C](=O)O)CS1 [1-13C OTZ, 1-13C-L-oxothiazolidine-4-carboxylic acid, reference compound]	305 area in arbitrary units divided by mmol 13C	–	–
C=C(CC(=O)O)[13C](=O)O [1-13C Itaconic acid, reference compound]	150 area in arbitrary units divided by mmol 13C	–	–
